Laboratory results taken from paper PMC5073310.
These are yes or no findings as the source states them, for the method shown. In cells and extracts the contact can be indirect. Binding calls can cover weak binding; strength is not graded here. Where a sequence is shown, tags or fusion partners need not be part of it.

By UniProt entry, the sequences of proteins in these tests, tags left out. Where a name states a change or a piece, a line headed by the entry shows the natural chain unless it says otherwise.
UniProt Q96C92: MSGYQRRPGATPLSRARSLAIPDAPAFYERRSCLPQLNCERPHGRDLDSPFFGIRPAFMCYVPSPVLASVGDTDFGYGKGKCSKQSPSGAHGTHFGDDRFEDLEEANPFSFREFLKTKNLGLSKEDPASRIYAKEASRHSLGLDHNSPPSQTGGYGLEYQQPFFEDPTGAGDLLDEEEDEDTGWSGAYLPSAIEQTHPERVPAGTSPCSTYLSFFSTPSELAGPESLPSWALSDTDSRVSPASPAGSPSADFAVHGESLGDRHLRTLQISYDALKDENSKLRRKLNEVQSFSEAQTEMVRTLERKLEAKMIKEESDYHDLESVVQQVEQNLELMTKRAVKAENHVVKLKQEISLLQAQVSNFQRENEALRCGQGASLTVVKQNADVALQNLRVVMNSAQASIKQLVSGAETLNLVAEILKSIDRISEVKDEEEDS

B1: EGFP-IFT88 (full-length) (protein, UniProt Q13099 1-824)
chain: MMQNVHLAPETDEDDLYSGYNDYNPIYDIEELENDAAFQQAVRTSHGRRPPITAKISSTAVTRPIATGYGSKTSLASSIGRPMTGAIQDGVTRPMTAVRAAGFTKAALRGSAFDPLSQSRGPASPLEAKKKDSPEEKIKQLEKEVNELVEESCIANSCGDLKLALEKAKDAGRKERVLVRQREQVTTPENINLDLTYSVLFNLASQYSVNEMYAEALNTYQVIVKNKMFSNAGILKMNMGNIYLKQRNYSKAIKFYRMALDQVPSVNKQMRIKIMQNIGVTFIQAGQYSDAINSYEHIMSMAPNLKAGYNLTICYFAIGDREKMKKAFQKLITVPLEIDEDKYISPSDDPHTNLVTEAIKNDHLRQMERERKAMAEKYIMTSAKLIAPVIETSFAAGYDWCVEVVKASQYVELANDLEINKAVTYLRQKDYNQAVEILKVLEKKDSRVKSAAATNLSALYYMGKDFAQASSYADIAVNSDRYNPAALTNKGNTVFANGDYEKAAEFYKEALRNDSSCTEALYNIGLTYEKLNRLDEALDCFLKLHAILRNSAEVLYQIANIYELMENPSQAIEWLMQVVSVIPTDPQVLSKLGELYDREGDKSQAFQYYYESYRYFPCNIEVIEWLGAYYIDTQFWEKAIQYFERASLIQPTQVKWQLMVASCFRRSGNYQKALDTYKDTHRKFPENVECLRFLVRLCTDLGLKDAQEYARKLKRLEKMKEIREQRIKSGRDGSGGSRGKREGSASGDSGQNYSASSKGERLSARLRALPGTNEPYESSSNKEIDASYVDPLGPQIERPKTAAKKRIDEDDFADEELGDDLLPE
B2: EGFP-IFT88 aa400-550 (domain or fragment, UniProt Q13099 400-550)
chain: WCVEVVKASQYVELANDLEINKAVTYLRQKDYNQAVEILKVLEKKDSRVKSAAATNLSALYYMGKDFAQASSYADIAVNSDRYNPAALTNKGNTVFANGDYEKAAEFYKEALRNDSSCTEALYNIGLTYEKLNRLDEALDCFLKLHAILRN
B3: EGFP-IFT88Δaa400-550 (protein, UniProt Q13099)
chain: MMQNVHLAPETDEDDLYSGYNDYNPIYDIEELENDAAFQQAVRTSHGRRPPITAKISSTAVTRPIATGYGSKTSLASSIGRPMTGAIQDGVTRPMTAVRAAGFTKAALRGSAFDPLSQSRGPASPLEAKKKDSPEEKIKQLEKEVNELVEESCIANSCGDLKLALEKAKDAGRKERVLVRQREQVTTPENINLDLTYSVLFNLASQYSVNEMYAEALNTYQVIVKNKMFSNAGILKMNMGNIYLKQRNYSKAIKFYRMALDQVPSVNKQMRIKIMQNIGVTFIQAGQYSDAINSYEHIMSMAPNLKAGYNLTICYFAIGDREKMKKAFQKLITVPLEIDEDKYISPSDDPHTNLVTEAIKNDHLRQMERERKAMAEKYIMTSAKLIAPVIETSFAAGYDSAEVLYQIANIYELMENPSQAIEWLMQVVSVIPTDPQVLSKLGELYDREGDKSQAFQYYYESYRYFPCNIEVIEWLGAYYIDTQFWEKAIQYFERASLIQPTQVKWQLMVASCFRRSGNYQKALDTYKDTHRKFPENVECLRFLVRLCTDLGLKDAQEYARKLKRLEKMKEIREQRIKSGRDGSGGSRGKREGSASGDSGQNYSASSKGERLSARLRALPGTNEPYESSSNKEIDASYVDPLGPQIERPKTAAKKRIDEDDFADEELGDDLLPE

Key:
[1] = target: T1, EGFP-IFT88 (full-length) (human) (UniProt Q13099); test: pull-down; GFP-Trap_A pulldown of mixed lysates of cells transfected with myc-SDCCAG3 or GFP fusion proteins, 2 h at 4 °C; 50mM HEPES pH 7.5, 150mM NaCl, 1% Triton X-100; western blot with anti-myc and anti-GFP
T1 sequence: B1 chain

[2] = target: GST-fusion protein of SDCCAG3 lacking amino acids 1-100 (human) (UniProt Q96C92); test: pull-down; GST-fusion proteins on glutathione agarose 4B beads incubated with lysates of transfected HeLa, Cos7 or HEK293 cells, 3 h at 4 °C, 1 x PBS, 0.5% Triton X-100; western blot with anti-GFP; only the target purified
[3] = target: GST-SDCCAG3 (full-length) (human) (UniProt Q96C92); test: as above
[4] = target: GST-SDCCAG3 1-100aa (human) (UniProt Q96C92); test: as above

Row | Molecule | binding [1] | binding [2] | binding [3] | binding [4]
1 | Myc-SDCCAG3 (from UniProt Q96C92-2) | binds | – | – | –
2 | B1 | – | binds weakly | binds | binds
3 | B2 | – | – | binds | binds
4 | B3 | – | – | no binding | no binding
